Test results from paper PMC12078756.

Sequences of proteins named here, by UniProt entry; tags and fusion partners are left off. A change or cut given only in a name is not applied to a line headed by its entry. A line that says so, or that is headed by a name, gives the form on record, which may keep a tag or linker.
GFP-tagged IFT20 (intraflagellar transport protein 20) (Q8IY31, form named): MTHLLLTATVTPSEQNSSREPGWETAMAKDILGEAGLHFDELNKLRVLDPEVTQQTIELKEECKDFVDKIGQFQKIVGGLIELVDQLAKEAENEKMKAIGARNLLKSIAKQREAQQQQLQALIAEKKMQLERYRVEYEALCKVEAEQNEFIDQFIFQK

Target: GFP-tagged IFT20 (intraflagellar transport protein 20) (human) (UniProt Q8IY31)
Experiment: affinity purification with mass spectrometry; HEK293T cells transfected with GFP or GFP-IFT20, lysed; GFP or GFP-IFT20 pulled down with GFP magnetic beads and analysed by mass spectrometry

B1: IFT88 (endogenous, found by mass spectrometry) (protein, UniProt Q13099 1-824)
chain: MMQNVHLAPETDEDDLYSGYNDYNPIYDIEELENDAAFQQAVRTSHGRRPPITAKISSTAVTRPIATGYGSKTSLASSIGRPMTGAIQDGVTRPMTAVRAAGFTKAALRGSAFDPLSQSRGPASPLEAKKKDSPEEKIKQLEKEVNELVEESCIANSCGDLKLALEKAKDAGRKERVLVRQREQVTTPENINLDLTYSVLFNLASQYSVNEMYAEALNTYQVIVKNKMFSNAGILKMNMGNIYLKQRNYSKAIKFYRMALDQVPSVNKQMRIKIMQNIGVTFIQAGQYSDAINSYEHIMSMAPNLKAGYNLTICYFAIGDREKMKKAFQKLITVPLEIDEDKYISPSDDPHTNLVTEAIKNDHLRQMERERKAMAEKYIMTSAKLIAPVIETSFAAGYDWCVEVVKASQYVELANDLEINKAVTYLRQKDYNQAVEILKVLEKKDSRVKSAAATNLSALYYMGKDFAQASSYADIAVNSDRYNPAALTNKGNTVFANGDYEKAAEFYKEALRNDSSCTEALYNIGLTYEKLNRLDEALDCFLKLHAILRNSAEVLYQIANIYELMENPSQAIEWLMQVVSVIPTDPQVLSKLGELYDREGDKSQAFQYYYESYRYFPCNIEVIEWLGAYYIDTQFWEKAIQYFERASLIQPTQVKWQLMVASCFRRSGNYQKALDTYKDTHRKFPENVECLRFLVRLCTDLGLKDAQEYARKLKRLEKMKEIREQRIKSGRDGSGGSRGKREGSASGDSGQNYSASSKGERLSARLRALPGTNEPYESSSNKEIDASYVDPLGPQIERPKTAAKKRIDEDDFADEELGDDLLPE
In the case of B1, the binding is reported as “binds”.

Results are given in words; binding and its absence hold for the method and conditions named. In cells and extracts the contact can be indirect. A yes stands for co-enrichment or nearness to the bait. Other partners may have been found.
